Measured values taken from article PMC4634911.
Residue numbers refer to the chain shown, from its start. Names and notes keep the numbering of the source. Results are given in words; binding and its absence hold for the method and conditions named. Binding seen in cells or lysates may run through a third protein. Some entries that bind do so weakly or less than the wild type. For part of these data: Sequences can lack the tags named with a protein.

Amino acid sequences for entries named in this document (tags omitted).
UniProt A6NGQ2: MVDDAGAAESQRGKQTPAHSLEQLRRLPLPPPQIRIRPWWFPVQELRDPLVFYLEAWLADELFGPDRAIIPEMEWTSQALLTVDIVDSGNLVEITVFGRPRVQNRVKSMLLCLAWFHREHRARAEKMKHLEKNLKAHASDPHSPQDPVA

T1: KDHC3L/Ecat1 (KHDC3L), endogenous in lymphoblastoid cells (human (endogenous in lymphoblastoid cell lines)) (UniProt Q587J8)
T1 sequence: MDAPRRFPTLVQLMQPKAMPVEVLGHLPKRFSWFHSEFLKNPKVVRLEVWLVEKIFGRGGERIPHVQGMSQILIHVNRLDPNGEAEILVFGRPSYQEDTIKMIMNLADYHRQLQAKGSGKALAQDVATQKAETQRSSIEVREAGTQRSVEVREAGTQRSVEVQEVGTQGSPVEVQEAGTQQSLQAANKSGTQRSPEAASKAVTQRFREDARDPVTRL

T2: Flag-tagged TLE6 S510Y (human) (UniProt Q9H808)
T2 sequence: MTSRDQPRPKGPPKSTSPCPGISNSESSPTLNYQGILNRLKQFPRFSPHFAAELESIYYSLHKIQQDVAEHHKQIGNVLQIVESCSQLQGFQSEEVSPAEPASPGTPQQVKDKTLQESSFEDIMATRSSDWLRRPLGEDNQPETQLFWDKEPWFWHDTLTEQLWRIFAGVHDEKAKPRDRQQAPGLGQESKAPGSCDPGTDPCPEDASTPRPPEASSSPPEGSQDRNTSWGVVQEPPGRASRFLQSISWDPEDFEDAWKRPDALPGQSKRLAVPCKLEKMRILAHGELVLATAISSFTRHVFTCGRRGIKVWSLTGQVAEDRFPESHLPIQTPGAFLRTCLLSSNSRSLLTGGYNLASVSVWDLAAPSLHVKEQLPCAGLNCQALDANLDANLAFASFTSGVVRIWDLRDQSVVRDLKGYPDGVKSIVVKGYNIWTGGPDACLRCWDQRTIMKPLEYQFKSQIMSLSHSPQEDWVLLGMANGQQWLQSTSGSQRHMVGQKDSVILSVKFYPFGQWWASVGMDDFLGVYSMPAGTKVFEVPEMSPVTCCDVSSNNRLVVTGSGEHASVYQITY

T3: Flag-tagged TLE6, wild type (human) (UniProt Q9H808)
T3 sequence: T2 sequence with Y510S

B1: TLE6 (transducin-like enhancer of split 6), wild type, endogenous in control lymphoblastoid cells (protein, UniProt Q9H808-1 1-572)
chain: T2 sequence with Y510S
B2: TLE6 S510Y, endogenous in lymphoblastoid cells of patients homozygous for the mutation (protein, UniProt Q9H808-1 1-572)
chain: T2 sequence
B3: KDHC3L (KHDC3L) in the cells transfected with Flag-TLE6 (protein, UniProt Q587J8 1-217)
chain: T1 sequence

Columns and labels:
[1] = target: T1, KDHC3L/Ecat1 (KHDC3L), endogenous in lymphoblastoid cells (human (endogenous in lymphoblastoid cell lines)); assay: co-IP; endogenous proteins from control and patient lymphoblastoid cell extracts; precipitated with anti-OOEP or anti-KDHC3L/Ecat1 antibody (control IgG beside it) on Protein A dynabeads, 2 h at 4 °C, pull-down buffer 50 mM HEPES pH 7.5, 150 mM NaCl, 0.1 % Tween 20; immunoblot for TLE6
[2] = target: OOEP, endogenous in lymphoblastoid cells (human (endogenous in lymphoblastoid cell lines)) (UniProt A6NGQ2); assay: as above
[3] = target: T2, Flag-tagged TLE6 S510Y (human); assay: co-IP; cells expressing Flag-tagged wild-type or S510Y TLE6; lysate on anti-Flag beads, 2 h at 4 °C, pull-down buffer 50 mM HEPES pH 7.5, 150 mM NaCl, 0.1 % Tween 20; immunoblot for OOEP and KDHC3L
[4] = target: T3, Flag-tagged TLE6, wild type (human); assay: as above

| Binder | binding [1] | binding [2] | binding [3] | binding [4] |
| --- | --- | --- | --- | --- |
| B1 | binds | binds | – | – |
| B2 | binds | binds | – | – |
| B3 | – | – | binds | binds |
